Laboratory results: PubChem BioAssay AID1224826 (NIAID, 2016)
The deposit covers about 17,000 reagents; this is a random part of them. About 1,110 of all reagents (6.6%) count as active. 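Active means lowered or raised reporter signal; replicate intensities are raw and not normalised per plate.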 Some reagents were tested in more than one well and are listed for each. Not all columns of the deposit are shown.

Assay: 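Knock-downs that raise or lower Tnf reporter signal after endotoxin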 (primary screen)
System: RAW264.7 G9 macrophages from mouse bearing reporters for p65 (GFP) and the Tnf promoter (mCherry)
Reagents: siRNA pool against mouse genes, 100 nM
Timing: 16 h of LPS stimulation, after 2 days of siRNA transfection
Treatment: bacterial lipopolysaccharide (Salmonella minnesota R595), 10 ng/ml
Measured: 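Imaged Tnf reporter mCherry in nuclei, minus background, normalised per plate to the median and expressed as robust z-scores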
Direction: Tnf reporter robust z-score: higher = stronger Tnf promoter reporter signal after LPS
Hit rule: 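Called active when robust z-score is at most -1.3, matching the median of the Tlr4 knock-down control, or over 3; control wells and wells with under 50 cells never active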
Meaning of the calls: active = Tnf reporter clearly lowered or raised; inactive = no clear change in Tnf reporter

{"gene":"Aldh1l2 (GeneID 216188)","PubChem SID":"SID315477984","Tnf reporter robust z-score":-1.24,"fewer than 50 cells in well":"enough cells in well","call":"inactive"}
{"gene":"Il1f10 (GeneID 215274)","PubChem SID":"SID315477919","Tnf reporter robust z-score":0.25,"fewer than 50 cells in well":"enough cells in well","call":"inactive"}
{"gene":"Vps25 (GeneID 28084)","PubChem SID":"SID315470675","Tnf reporter robust z-score":-0.91,"fewer than 50 cells in well":"enough cells in well","call":"inactive"}
{"gene":"Gramd1b (GeneID 235283)","PubChem SID":"SID315479237","fewer than 50 cells in well":"fewer than 50 cells per well; well left out of calls","call":"inactive"}
{"gene":"Ptbp3 (GeneID 230257)","PubChem SID":"SID315478772","Tnf reporter robust z-score":-0.33,"fewer than 50 cells in well":"enough cells in well","call":"inactive"}
{"gene":"Trim12c (GeneID 319236)","PubChem SID":"SID315481057","Tnf reporter robust z-score":-0.12,"fewer than 50 cells in well":"enough cells in well","call":"inactive"}
{"gene":"Ndufb11 (GeneID 104130)","PubChem SID":"SID315476419","Tnf reporter robust z-score":-0.36,"fewer than 50 cells in well":"enough cells in well","call":"inactive"}
{"gene":"Noct (GeneID 12457)","PubChem SID":"SID315465825","Tnf reporter robust z-score":-0.49,"fewer than 50 cells in well":"enough cells in well","call":"inactive"}
{"gene":"Grpr (GeneID 14829)","PubChem SID":"SID315467045","Tnf reporter robust z-score":-1.11,"fewer than 50 cells in well":"enough cells in well","call":"inactive"}
{"gene":"Rmnd1 (GeneID 66084)","PubChem SID":"SID315472202","Tnf reporter robust z-score":1.86,"fewer than 50 cells in well":"enough cells in well","call":"inactive"}
{"gene":"Hacl1 (GeneID 56794)","PubChem SID":"SID315471687","Tnf reporter robust z-score":-0.67,"fewer than 50 cells in well":"enough cells in well","call":"inactive"}
{"gene":"Lhfpl6 (GeneID 108927)","PubChem SID":"SID315476759","Tnf reporter robust z-score":-0.57,"fewer than 50 cells in well":"enough cells in well","call":"inactive"}
{"gene":"Pramel37 (GeneID 381724)","PubChem SID":"SID315481803","fewer than 50 cells in well":"fewer than 50 cells per well; well left out of calls","call":"inactive"}
{"gene":"Tcl1b3 (GeneID 27378)","PubChem SID":"SID315470591","fewer than 50 cells in well":"fewer than 50 cells per well; well left out of calls","call":"inactive"}
{"gene":"Chchd2 (GeneID 14004)","PubChem SID":"SID315466572","Tnf reporter robust z-score":-0.62,"fewer than 50 cells in well":"enough cells in well","call":"inactive"}
{"gene":"Cmc1 (GeneID 67899)","PubChem SID":"SID315473300","fewer than 50 cells in well":"fewer than 50 cells per well; well left out of calls","call":"inactive"}
{"gene":"Ago2 (GeneID 239528)","PubChem SID":"SID315479445","Tnf reporter robust z-score":0.06,"fewer than 50 cells in well":"enough cells in well","call":"inactive"}
{"gene":"Abca2 (GeneID 11305)","PubChem SID":"SID315465231","Tnf reporter robust z-score":-0.59,"fewer than 50 cells in well":"enough cells in well","call":"inactive"}
{"gene":"Cbx6 (GeneID 494448)","PubChem SID":"SID315481969","Tnf reporter robust z-score":-1.01,"fewer than 50 cells in well":"enough cells in well","call":"inactive"}
{"gene":"Cbx6 (GeneID 494448)","PubChem SID":"SID315481969","Tnf reporter robust z-score":-0.21,"fewer than 50 cells in well":"enough cells in well","call":"inactive"}
{"gene":"4930503E14Rik (GeneID 74954)","PubChem SID":"SID315475062","Tnf reporter robust z-score":0.21,"fewer than 50 cells in well":"enough cells in well","call":"inactive"}

A run of entries of the results above, for reference:
{"gene":"Noct (GeneID 12457)","PubChem SID":"SID315465825","Tnf reporter robust z-score":-0.49,"fewer than 50 cells in well":"enough cells in well","call":"inactive"}
{"gene":"Grpr (GeneID 14829)","PubChem SID":"SID315467045","Tnf reporter robust z-score":-1.11,"fewer than 50 cells in well":"enough cells in well","call":"inactive"}
